These results are taken from PubChem BioAssay AID248 (DTP/NCI, 2004).

For this assay, the system named is L1210 leukemia ip in BDF1 mice, survival T/C. Kind of assay: NCI In Vivo Anticancer Drug Screen. Data for tumor model L1210 Leukemia (intraperitoneal) in B6D2F1 (BDF1) mice. To be noted: T/C endpoint: mean survival time, higher T/C = longer survival.
[1] abbreviates: dose: 300.0 mg/kg/injection, schedule: Q01DX001 (ip), vehicle: saline.
Where [2] appears, read: dose: 100.0 mg/kg/injection, schedule: Q04DX003 (ip), vehicle: saline.
The mark [3] stands for this setting: dose: 200.0 mg/kg/injection, schedule: Q04DX003 (ip), vehicle: saline.
The mark [4] stands for this setting: dose: 400.0 mg/kg/injection, schedule: Q04DX003 (ip), vehicle: saline.
The mark [5] stands for this setting: dose: 100.0 mg/kg/injection, schedule: Q04DX003 (ip), vehicle: Klucel (hydroxypropylcellulose) (HPC).
Setting [6] is: dose: 75.0 mg/kg/injection, schedule: Q01DX001 (ip), vehicle: saline.
[7] abbreviates: dose: 150.0 mg/kg/injection, schedule: Q01DX001 (ip), vehicle: saline.
Where [8] appears, read: dose: 100.0 mg/kg/injection, schedule: Q01DX001 (ip), vehicle: saline.
[9] abbreviates: dose: 100.0 mg/kg/injection, schedule: Q01DX009 (ip), vehicle: saline with Tween-80.
Setting [10] is: dose: 200.0 mg/kg/injection, schedule: Q01DX009 (ip), vehicle: saline with Tween-80.
The mark [11] stands for this setting: dose: 400.0 mg/kg/injection, schedule: Q01DX009 (ip), vehicle: saline with Tween-80.
Where [12] appears, read: dose: 200.0 mg/kg/injection, schedule: Q01DX009 (ip), vehicle: saline.
Setting [13] is: dose: 400.0 mg/kg/injection, schedule: Q01DX001 (ip), vehicle: saline.

The structures appear in SMILES notation. The list does not hold the whole screen: it gathers tests that were run many times, whatever their T/C, doses with no T/C, and many T/C values between a quarter and a half above the control. Further doses and runs are listed elsewhere. T/C: endpoint of the treated group in % of that of the vehicle group. Some doses have a count of surviving animals in place of a T/C: the source files T/C as zero there, which appears to mark a toxic dose or a test without result, not a measured value. Some survivor counts are full or nearly so, which does not show that the dose was tolerated: survival well below the control is almost never listed, so the zero probably covers shortened survival too. Counts of survivors are from the toxicity check (mostly the fifth day) where no day follows; animals may have died later. Schedules are NCI's codes, taken here to give the interval after Q, in days (D) or hours (H), and the number of doses after X. Some schedules carry Z or #; the key to these is not given. Where survival is the endpoint, this PubChem deposit counts one and a half times the control or more as active, and values a quarter to a half above the control carry no call in these data; other NCI protocols may use other cut-offs.

As to `CN(C)CCN(C)C(=O)C(c1ccccc1)C1CCCCC1` (stereo not drawn), the survivor count under setting [1] was 1 of 6.
`CCN(CC)CCCC(C)Nc1cc(N)nc2nc(-c3ccc(Br)cc3)cnc12` (stereo not drawn): under setting [1], the survivor count is on record as 0 of 6.
In the case of `COc1cc2cc(-c3cc(OC)c(OC)c(OC)c3)c3c(c2cc1OC)CNC3=O`, the survivor count (dose: 400.0 mg/kg/injection, schedule: Q01DX009 (ip), vehicle: saline) is 5 of 6.
Take `CNC[C@@H](O)c1ccc(O)c(O)c1`: the survivor count is 6 of 6 (dose: 1.8 mg/kg/injection, schedule: Q01DX001 (ip), vehicle: saline); 6 of 6 (dose: 2.7 mg/kg/injection, schedule: Q01DX001 (ip), vehicle: saline); 2 of 6 (dose: 5.4 mg/kg/injection, schedule: Q04DX003 (ip), vehicle: saline).
On to `C[N+]1=C2CCCCCC2=C(N)CC1`, for which the survivor count under setting [2] was 3 of 6, the survivor count under setting [3] is listed as 0 of 6 and the survivor count under setting [4] is 0 of 6.
Regarding `O=C(NCc1ccncc1)Nc1ccccc1Cl`, the survivor count (dose: 400.0 mg/kg/injection, schedule: Q04DX002 (ip), vehicle: saline) was 2 of 3.
For `CCC(C)C(C(=O)OCCC[N+]1(C)CCCCC1)c1ccccc1` (stereo not drawn), the survivor count is reported as 3 of 6 under setting [2], 0 of 6 under setting [3] and 0 of 6 under setting [4].
For the compound `COC(=O)C1=C(C(=O)OC)C2OC1C(COC(C)=O)=C2COC(C)=O`, the survivor count under setting [3] is recorded as 3 of 6 and the survivor count under setting [4] was 0 of 6.
With `CC(C)=CCN(CC=C(C)C)CCC(C#N)(CC=C(C)C)c1cccc2ccccc12` (stereo not drawn), the survivor count is on record as 0 of 6 under setting [5]; 0 of 6 (dose: 200.0 mg/kg/injection, schedule: Q04DX003 (ip), vehicle: Klucel (hydroxypropylcellulose) (HPC)); 0 of 6 (dose: 400.0 mg/kg/injection, schedule: Q04DX003 (ip), vehicle: Klucel (hydroxypropylcellulose) (HPC)).
As for `Cc1ccc2cc(O)ccc2c1`, the survivor count (dose: 400.0 mg/kg/injection, schedule: Q04DX003 (ip), vehicle: acetone) is 0 of 6.
Take `CC1=C(Cl)C(=O)C(C)=C(Cl)C1=O`: the survivor count is recorded as 2 of 6 under setting [6], 0 of 6 under setting [7] and 0 of 6 under setting [1].
For the compound `CN=C(N)c1ccc(N=C(N)c2ccc(N=C(N)c3ccc(N)cc3)cc2)cc1`, the T/C reads like this: (dose: 17.0 mg/kg/injection, schedule: Q01DX Z (ip), vehicle: water) 145 % of control; (dose: 34.0 mg/kg/injection, schedule: Q01DX Z (ip), vehicle: water) 148 % of control. Also, the survivor count reads like this: (dose: 70.0 mg/kg/injection, schedule: Q01DX015 (ip), vehicle: saline) 0 of 6; under setting [6], 0 of 6; (dose: 85.0 mg/kg/injection, schedule: Q01DX015 (ip), vehicle: saline) 0 of 6; under setting [8], 1 of 6; (dose: 500.0 mg/kg/injection, schedule: Q01DX Z (oral), vehicle: water) 0 of 6.
Turning to `CCCC(CCC)NCCOC(=O)C(CC)c1ccccc1` (stereo not drawn), the survivor count by setting is: under setting [7], 1 of 6; under setting [1], 0 of 6.
As to `CC1(NO)CCCCC1`, the survivor count (dose: 400.0 mg/kg/injection, schedule: Q01DX001 (ip), vehicle: Klucel (hydroxypropylcellulose) (HPC)) is on record as 0 of 6.
As to `CC(C)OCCCN`, the survivor count (dose: 400.0 mg/kg/injection, schedule: Q01DX001 (ip), vehicle: carboxymethylcellulose (CMC)) is recorded as 0 of 4.
As to `O=C(N=c1scc(-c2ccc(Br)cc2)n1-c1cccc2ccccc12)c1ccccc1F`, the survivor count is on record as 6 of 6 under setting [9], 6 of 6 under setting [10] and 6 of 6 under setting [11].
Take `NC1=CC(=O)c2ccccc2C1=O`: the survivor count is given as 3 of 6 (dose: 31.2 mg/kg/injection, schedule: Q01DX Z (ip), vehicle: other); 2 of 6 (dose: 125.0 mg/kg/injection, schedule: Q01DX Z (ip), vehicle: other); 0 of 6 (dose: 400.0 mg/kg/injection, schedule: Q04DX003 (ip), vehicle: saline with Tween-80).
For the compound `FC(F)(F)c1ccc2nc(CI)c(CI)nc2c1`, the survivor count reads like this: (dose: 25.0 mg/kg/injection, schedule: Q01DX009 (ip), vehicle: other) 6 of 6; (dose: 25.0 mg/kg/injection, schedule: Q01DX009 (ip), vehicle: saline with Tween-80) 4 of 6; (dose: 50.0 mg/kg/injection, schedule: Q01DX009 (ip), vehicle: other) 4 of 6; (dose: 50.0 mg/kg/injection, schedule: Q01DX009 (ip), vehicle: saline with Tween-80) 1 of 6; (dose: 100.0 mg/kg/injection, schedule: Q01DX009 (ip), vehicle: other) 0 of 6; under setting [9], 0 of 6. The survivor count is, setting by setting: (dose: 100.0 mg/kg/injection, schedule: Q04DX003 (ip), vehicle: other) 6 of 6; under setting [10], 0 of 6; (dose: 200.0 mg/kg/injection, schedule: Q04DX003 (ip), vehicle: other) 0 of 6; under setting [11], 0 of 6; (dose: 400.0 mg/kg/injection, schedule: Q04DX003 (ip), vehicle: other) 1 of 6.
Regarding `CNC(C)Cc1ccc2c(c1)OCO2` (stereo not drawn), the survivor count by setting is: (dose: 100.0 mg/kg/injection, schedule: Q01DX009 (ip), vehicle: saline) 3 of 6; (dose: 150.0 mg/kg/injection, schedule: Q04DX003 (ip), vehicle: saline) 3 of 6; under setting [12], 0 of 6; (dose: 300.0 mg/kg/injection, schedule: Q04DX003 (ip), vehicle: saline) 0 of 6.
Turning to `NC(=O)C1C=CCC1` (stereo not drawn), the survivor count was 2 of 3 (dose: 100.0 mg/kg/injection, schedule: Q04DX002 (ip), vehicle: saline with Tween-80); 0 of 3 (dose: 200.0 mg/kg/injection, schedule: Q04DX002 (ip), vehicle: saline with Tween-80); 0 of 3 (dose: 400.0 mg/kg/injection, schedule: Q04DX002 (ip), vehicle: saline with Tween-80).
With `NCCc1cc2c3c(c1)CCCN3CCC2`, the survivor count is, setting by setting: (dose: 12.5 mg/kg/injection, schedule: Q01DX009 (ip), vehicle: saline) 3 of 6; (dose: 25.0 mg/kg/injection, schedule: Q01DX009 (ip), vehicle: saline) 0 of 6; (dose: 50.0 mg/kg/injection, schedule: Q01DX001 (ip), vehicle: saline) 2 of 6; under setting [8], 0 of 6; (dose: 200.0 mg/kg/injection, schedule: Q01DX001 (ip), vehicle: saline) 0 of 6; under setting [13], 0 of 6.
As for `O=C(/C=C/c1ccccc1)N1CCOCC1`, the survivor count runs as follows: under setting [12], 3 of 6; under setting [13], 2 of 6.
Take `CCC1([N+](=O)[O-])COCOC1`: the survivor count is, setting by setting: (dose: 50.0 mg/kg/injection, schedule: Q04DX003 (ip), vehicle: Klucel (hydroxypropylcellulose) (HPC)) 3 of 6; under setting [5], 0 of 6.
`COc1ccccc1-n1c(=O)c(N=Nc2ccccc2)c(O)n(-c2ccccc2Cl)c1=S`: where the note is “dose: 200.0 mg/kg/injection, schedule: Q04DX003 (ip), vehicle: saline with Tween-80”, the survivor count is recorded as 2 of 6.
